Measurements: the supplement of paper PMC10849652
The list shows a part of the results.

Protein sequences, listed by entry. Tags and fused reporters are not part of them. Lines headed by an entry give the natural chain unless they say otherwise; changes in a name come on top.
UniProt O14656: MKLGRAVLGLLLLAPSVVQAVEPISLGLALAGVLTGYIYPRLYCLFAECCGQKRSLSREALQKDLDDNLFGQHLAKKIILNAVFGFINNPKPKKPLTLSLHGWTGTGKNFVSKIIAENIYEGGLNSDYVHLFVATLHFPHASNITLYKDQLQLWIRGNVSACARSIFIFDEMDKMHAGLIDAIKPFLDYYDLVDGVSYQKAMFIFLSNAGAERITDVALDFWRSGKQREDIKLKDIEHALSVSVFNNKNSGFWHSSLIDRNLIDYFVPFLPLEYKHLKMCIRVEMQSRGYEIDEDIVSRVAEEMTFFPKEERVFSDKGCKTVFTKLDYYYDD
UniProt Q9BSV6: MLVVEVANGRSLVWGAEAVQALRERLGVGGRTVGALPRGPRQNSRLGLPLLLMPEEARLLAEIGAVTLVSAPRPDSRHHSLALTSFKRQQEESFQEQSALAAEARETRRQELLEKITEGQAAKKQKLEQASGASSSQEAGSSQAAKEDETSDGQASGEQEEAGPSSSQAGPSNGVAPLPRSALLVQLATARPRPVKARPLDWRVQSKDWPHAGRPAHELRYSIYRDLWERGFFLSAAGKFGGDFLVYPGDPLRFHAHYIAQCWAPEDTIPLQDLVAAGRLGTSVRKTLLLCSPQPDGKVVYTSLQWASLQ
UniProt Q8IUR0, whole entry, looked up: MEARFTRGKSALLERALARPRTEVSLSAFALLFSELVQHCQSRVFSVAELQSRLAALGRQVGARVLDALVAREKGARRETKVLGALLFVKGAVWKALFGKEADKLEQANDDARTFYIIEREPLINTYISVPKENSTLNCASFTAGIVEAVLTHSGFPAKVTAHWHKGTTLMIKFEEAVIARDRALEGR
UniProt O14545: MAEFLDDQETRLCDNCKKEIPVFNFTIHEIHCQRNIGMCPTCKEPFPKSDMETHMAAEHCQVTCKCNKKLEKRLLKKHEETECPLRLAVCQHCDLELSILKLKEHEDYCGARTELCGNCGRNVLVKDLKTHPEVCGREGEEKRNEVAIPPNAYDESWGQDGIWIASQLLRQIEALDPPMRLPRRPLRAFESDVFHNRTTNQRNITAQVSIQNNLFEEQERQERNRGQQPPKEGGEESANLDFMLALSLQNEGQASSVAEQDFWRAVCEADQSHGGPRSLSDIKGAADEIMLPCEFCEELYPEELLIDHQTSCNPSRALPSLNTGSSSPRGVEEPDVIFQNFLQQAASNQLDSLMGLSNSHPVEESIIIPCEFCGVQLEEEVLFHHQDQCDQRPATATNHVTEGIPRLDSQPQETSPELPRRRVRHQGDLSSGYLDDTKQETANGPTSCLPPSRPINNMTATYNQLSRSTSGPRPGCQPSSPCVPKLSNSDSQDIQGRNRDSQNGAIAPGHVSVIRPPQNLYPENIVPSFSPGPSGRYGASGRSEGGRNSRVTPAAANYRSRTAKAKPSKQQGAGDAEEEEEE
UniProt Q9NUP7: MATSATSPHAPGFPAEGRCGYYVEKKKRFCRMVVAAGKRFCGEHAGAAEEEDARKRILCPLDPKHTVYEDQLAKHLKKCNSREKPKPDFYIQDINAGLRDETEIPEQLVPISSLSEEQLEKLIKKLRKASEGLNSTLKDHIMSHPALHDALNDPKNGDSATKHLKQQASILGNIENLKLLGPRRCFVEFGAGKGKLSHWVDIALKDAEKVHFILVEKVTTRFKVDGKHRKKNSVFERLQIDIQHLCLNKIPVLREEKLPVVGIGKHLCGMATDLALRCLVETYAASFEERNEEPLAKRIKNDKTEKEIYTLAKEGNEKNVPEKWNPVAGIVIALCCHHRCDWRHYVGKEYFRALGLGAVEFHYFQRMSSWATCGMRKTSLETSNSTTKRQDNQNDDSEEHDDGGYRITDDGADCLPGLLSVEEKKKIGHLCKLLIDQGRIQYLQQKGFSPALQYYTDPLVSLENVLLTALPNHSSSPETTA
UniProt Q7Z2T5: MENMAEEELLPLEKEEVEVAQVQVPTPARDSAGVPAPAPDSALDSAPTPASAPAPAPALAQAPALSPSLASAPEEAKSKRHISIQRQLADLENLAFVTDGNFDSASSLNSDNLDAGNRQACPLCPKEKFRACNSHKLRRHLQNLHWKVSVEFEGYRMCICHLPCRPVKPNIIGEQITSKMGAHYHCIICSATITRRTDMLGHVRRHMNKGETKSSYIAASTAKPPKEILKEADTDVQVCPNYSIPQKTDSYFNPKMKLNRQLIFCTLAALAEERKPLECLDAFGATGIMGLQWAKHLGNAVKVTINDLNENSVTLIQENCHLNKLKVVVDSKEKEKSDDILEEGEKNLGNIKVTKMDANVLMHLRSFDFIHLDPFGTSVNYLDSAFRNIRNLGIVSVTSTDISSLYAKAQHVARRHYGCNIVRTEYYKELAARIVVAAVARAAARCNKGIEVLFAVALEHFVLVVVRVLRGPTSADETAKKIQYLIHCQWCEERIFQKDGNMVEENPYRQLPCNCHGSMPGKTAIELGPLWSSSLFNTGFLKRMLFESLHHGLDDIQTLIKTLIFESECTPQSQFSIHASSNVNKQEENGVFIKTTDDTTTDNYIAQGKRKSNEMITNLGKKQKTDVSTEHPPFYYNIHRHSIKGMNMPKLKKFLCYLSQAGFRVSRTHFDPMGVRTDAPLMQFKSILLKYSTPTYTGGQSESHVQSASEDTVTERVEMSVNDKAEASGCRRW
UniProt Q7Z4G4: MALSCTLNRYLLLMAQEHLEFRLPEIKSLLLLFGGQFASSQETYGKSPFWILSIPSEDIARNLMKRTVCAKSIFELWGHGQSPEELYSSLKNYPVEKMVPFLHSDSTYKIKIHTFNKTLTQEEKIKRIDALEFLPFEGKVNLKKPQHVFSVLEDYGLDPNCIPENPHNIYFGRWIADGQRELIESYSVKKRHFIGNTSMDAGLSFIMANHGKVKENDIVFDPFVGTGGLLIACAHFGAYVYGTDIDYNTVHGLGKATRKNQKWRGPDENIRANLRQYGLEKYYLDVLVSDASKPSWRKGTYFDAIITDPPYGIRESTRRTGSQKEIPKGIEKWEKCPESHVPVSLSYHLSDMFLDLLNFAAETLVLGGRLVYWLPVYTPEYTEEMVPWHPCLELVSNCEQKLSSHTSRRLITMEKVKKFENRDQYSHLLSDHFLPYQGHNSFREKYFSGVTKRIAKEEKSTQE
UniProt Q969M1: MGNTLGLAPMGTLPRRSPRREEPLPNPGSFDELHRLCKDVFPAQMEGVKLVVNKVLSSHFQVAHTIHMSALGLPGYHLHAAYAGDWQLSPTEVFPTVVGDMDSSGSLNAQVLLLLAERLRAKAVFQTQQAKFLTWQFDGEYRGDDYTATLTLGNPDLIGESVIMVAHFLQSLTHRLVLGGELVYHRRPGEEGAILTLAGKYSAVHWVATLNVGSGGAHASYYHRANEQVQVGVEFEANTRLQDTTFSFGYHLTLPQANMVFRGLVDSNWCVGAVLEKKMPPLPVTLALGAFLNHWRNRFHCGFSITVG
UniProt Q5JTV8: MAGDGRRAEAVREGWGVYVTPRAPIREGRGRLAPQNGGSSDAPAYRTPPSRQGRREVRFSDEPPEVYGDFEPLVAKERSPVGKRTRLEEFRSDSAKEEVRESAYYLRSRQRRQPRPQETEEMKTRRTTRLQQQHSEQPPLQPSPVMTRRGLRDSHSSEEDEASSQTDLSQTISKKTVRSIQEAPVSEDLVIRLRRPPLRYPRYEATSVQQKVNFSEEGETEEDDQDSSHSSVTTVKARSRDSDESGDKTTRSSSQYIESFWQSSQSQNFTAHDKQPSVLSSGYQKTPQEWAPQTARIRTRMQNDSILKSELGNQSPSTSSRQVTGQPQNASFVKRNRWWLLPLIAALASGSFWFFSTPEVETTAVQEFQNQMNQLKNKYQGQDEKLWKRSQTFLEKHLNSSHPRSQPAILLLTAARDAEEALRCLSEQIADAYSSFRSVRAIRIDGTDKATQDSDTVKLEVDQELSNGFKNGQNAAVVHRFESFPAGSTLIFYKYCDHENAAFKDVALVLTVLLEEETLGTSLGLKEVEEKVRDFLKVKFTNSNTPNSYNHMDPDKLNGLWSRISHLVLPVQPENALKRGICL
UniProt P62995: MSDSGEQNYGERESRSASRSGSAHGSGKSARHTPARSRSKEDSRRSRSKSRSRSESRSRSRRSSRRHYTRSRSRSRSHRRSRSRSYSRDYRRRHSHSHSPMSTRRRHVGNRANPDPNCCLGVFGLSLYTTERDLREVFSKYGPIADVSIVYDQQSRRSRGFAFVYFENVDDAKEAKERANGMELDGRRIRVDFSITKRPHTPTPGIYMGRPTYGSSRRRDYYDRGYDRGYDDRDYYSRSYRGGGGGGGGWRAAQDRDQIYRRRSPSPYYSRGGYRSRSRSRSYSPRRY
UniProt Q96Q11: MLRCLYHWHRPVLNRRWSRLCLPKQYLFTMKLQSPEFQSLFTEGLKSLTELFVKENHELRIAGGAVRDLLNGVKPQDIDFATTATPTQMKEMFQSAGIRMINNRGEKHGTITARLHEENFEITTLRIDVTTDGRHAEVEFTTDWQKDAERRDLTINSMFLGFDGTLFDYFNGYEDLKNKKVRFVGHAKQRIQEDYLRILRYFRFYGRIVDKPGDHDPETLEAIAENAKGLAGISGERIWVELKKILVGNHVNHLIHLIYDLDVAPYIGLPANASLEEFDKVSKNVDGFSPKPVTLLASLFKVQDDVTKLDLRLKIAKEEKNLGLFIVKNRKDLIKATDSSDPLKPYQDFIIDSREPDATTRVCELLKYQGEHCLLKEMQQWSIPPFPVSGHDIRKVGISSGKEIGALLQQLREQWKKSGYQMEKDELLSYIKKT
UniProt Q8WVT3: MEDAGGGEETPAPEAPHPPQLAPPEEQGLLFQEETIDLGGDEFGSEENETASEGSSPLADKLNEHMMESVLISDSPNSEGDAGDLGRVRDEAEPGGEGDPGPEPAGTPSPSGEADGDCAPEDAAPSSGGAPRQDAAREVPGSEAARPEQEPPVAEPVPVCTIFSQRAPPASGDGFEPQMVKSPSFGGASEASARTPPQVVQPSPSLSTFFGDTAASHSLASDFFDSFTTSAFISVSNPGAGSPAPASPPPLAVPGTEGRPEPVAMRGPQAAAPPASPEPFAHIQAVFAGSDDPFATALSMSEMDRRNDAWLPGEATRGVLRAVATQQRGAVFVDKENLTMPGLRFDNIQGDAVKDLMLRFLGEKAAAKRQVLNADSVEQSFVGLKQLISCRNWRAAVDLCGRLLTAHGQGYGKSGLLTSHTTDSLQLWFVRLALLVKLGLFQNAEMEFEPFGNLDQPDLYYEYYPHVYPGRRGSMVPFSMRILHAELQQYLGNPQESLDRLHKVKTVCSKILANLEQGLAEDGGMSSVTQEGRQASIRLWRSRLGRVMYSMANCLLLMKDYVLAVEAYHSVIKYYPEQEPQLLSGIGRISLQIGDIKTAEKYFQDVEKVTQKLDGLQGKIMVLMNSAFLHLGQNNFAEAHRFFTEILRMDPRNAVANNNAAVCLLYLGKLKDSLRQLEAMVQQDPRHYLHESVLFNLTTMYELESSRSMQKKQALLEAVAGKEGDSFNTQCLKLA
UniProt Q96Q05, whole entry, looked up: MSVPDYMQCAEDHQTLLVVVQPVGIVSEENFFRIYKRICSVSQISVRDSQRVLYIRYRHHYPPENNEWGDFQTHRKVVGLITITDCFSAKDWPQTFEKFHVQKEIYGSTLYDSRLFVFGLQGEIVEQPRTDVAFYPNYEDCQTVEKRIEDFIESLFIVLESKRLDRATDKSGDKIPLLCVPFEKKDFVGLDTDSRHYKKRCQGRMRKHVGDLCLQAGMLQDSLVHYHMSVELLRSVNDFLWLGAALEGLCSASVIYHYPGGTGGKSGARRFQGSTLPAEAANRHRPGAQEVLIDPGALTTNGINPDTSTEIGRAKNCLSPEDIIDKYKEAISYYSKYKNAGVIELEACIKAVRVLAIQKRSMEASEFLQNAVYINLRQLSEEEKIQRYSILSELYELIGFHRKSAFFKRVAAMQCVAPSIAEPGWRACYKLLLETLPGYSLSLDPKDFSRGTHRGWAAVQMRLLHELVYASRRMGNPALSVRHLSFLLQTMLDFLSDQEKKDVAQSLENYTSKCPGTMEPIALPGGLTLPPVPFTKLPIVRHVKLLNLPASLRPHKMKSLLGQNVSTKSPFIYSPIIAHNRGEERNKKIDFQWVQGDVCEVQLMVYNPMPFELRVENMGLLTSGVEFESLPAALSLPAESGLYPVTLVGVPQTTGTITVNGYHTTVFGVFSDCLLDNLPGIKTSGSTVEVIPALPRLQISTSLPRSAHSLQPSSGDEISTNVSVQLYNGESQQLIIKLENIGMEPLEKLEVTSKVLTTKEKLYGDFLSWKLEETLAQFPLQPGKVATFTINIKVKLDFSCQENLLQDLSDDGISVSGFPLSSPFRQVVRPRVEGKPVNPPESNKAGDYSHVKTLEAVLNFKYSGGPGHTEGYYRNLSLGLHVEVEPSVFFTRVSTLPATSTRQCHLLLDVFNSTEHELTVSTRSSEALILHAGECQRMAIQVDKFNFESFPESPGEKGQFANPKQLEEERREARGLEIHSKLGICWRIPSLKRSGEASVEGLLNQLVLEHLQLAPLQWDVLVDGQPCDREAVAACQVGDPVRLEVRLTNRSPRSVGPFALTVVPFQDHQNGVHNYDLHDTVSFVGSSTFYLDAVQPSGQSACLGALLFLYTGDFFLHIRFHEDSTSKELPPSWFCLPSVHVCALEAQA

compound: c1cn2cc(-c3ccc4cn[nH]c4c3)nc(Nc3ccc(N4CCOCC4)cc3)c2n1 [entospletinib]; assay: log2 fold change, soluble protein after heating vs DMSO (PISA); higher = thermal stabilisation; K562 cells, 10 uM, 30 min; active = over 0.2 and 3.5 SD of the protein, either way, in both replicates (recomputed)
Summary of the method: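 K562 cells at 2×10^6 cells/mL were treated for 30 min with 10 μM compound, and aliquots were heated for 3 min over 48°C-58°C before pooling. Extraction used PBS with 0.5% NP-40 at 4°C, and soluble protein was the supernatant after 21,000xg for 90 min, measured by TMTpro 16plex LC-MS/MS with channel sums equalised. Thermal stability values, relative to control samples and from duplicates, are log2 fold changes.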

log2 fold change, inactive:
TOR1A (UniProt O14656) 0.002
TRIM11 (UniProt Q96F44) 0.011
TSEN34 (UniProt Q9BSV6) -0.018
TNFRSF1B (UniProt P20333) -0.012
TPM4, A0A2R8Y5V9 0.01
TRAPPC5 (UniProt Q8IUR0) -0.037
TPP2 (UniProt P29144) 0.021
TOMM40 (UniProt O96008) -0.045
TRAFD1 (UniProt O14545) -0.024
TRMT13 (UniProt Q9NUP7) -0.009
TRIM65 (UniProt Q6PJ69) -0.141
TRMT112 (UniProt Q9UI30) 0.022
TSC22D4 (UniProt Q9Y3Q8) -0.012
TRMT1L (UniProt Q7Z2T5) 0.098
TRMT11 (UniProt Q7Z4G4) 0.008
TOP1 (UniProt P11387) -0.115
TRIP12 isoform 3 (UniProt Q14669) -0.059
TPM4 isoform 2 (UniProt P67936) 0.047
TRIM29 (UniProt Q14134) 0.07
TOMM70 (UniProt O94826) -0.033
TOMM40L (UniProt Q969M1) -0.087
TOR2A (UniProt Q5JU69) 0.011
TOR1AIP1 isoform 3 (UniProt Q5JTV8) 0.002
TRA2B (UniProt P62995) 0.171
TPM3 isoform 4 (UniProt P06753) 0.011
TPM1 isoform 4 (UniProt P09493) -0.011
TRNT1 (UniProt Q96Q11) -0.024
TRAPPC12 (UniProt Q8WVT3) 0.058
TPM3 isoform 2 (UniProt P06753) 0.033
TRAPPC9 isoform 2 (UniProt Q96Q05) -0.062
TOMM7 (UniProt Q9P0U1) 0.022
TRIO (UniProt O75962) 0.169

2 entries drawn at random from the list so far, as already listed:
log2 fold change, inactive:
TRAPPC5 (UniProt Q8IUR0) -0.037
TRA2B (UniProt P62995) 0.171
